Source: patent US7326704B2, “Iminobenzoxazines, iminobenzthiazines and iminoquinazolines for controlling invertebrate pests” (E.I. duPont de Nemours and Company, priority 2001, dated 2008)
Some of these results come from one statement about several compounds together.

Legend:
[1] = system: fall armyworm (Spodoptera frugiperda); experiment: Test B: control of fall armyworm on corn (maize) plant, foliar spray, visual feeding damage; format: in vivo; settings: sprayed at 250 ppm (or less), no rate mark, 1-day-old larvae, assessed after 6 days
[2] = system: diamondback moth (Plutella xylostella); experiment: Test A: control of diamondback moth on radish plant, foliar spray, visual feeding damage; format: in vivo; settings: sprayed at 10 ppm, neonate larvae, assessed after 6 days

With `FC(F)(F)c1cc(C2=Nc3c(Cl)cc(Cl)cc3C3=NCCN32)n(-c2ncccc2Cl)n1` [Compound 13, 7,9-Dichloro-5-[1-(3-chloro-2-pyridinyl)-3-(trifluoromethyl)-1H-pyrazol-5-yl]-2.3-dihydroimidazo[1,2-c]quinazoline] the “plant protection (feeding damage)” value [1] was at most 20% and the “plant protection (feeding damage)” value [2] was at most 20%.
